Structures can show the parent of a compound that is named as a salt. The list shows a part of the results. Repeats in this data set agree poorly, so a single value says little.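 Wild-type human LRH-1, a heavily sumoylated nuclear receptor, is tetracycline-inducible in stable JEG3 cells. RT-qPCR measured SUMO-sensitive APOC3 and MUC1 transcripts, which rise with SUMO-less LRH-1 or UBC9 knockdown, versus TBP and DMSO controls. Robust Z-scores beyond ±2 flagged primary hits, followed by toxicity and TBP filtering.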
system: JEG3 expressing hLRH-1; experiment: MUC1 transcript change (ddCt vs TBP and DMSO), Z-score over library; higher = higher MUC1 expression; settings: 10 µM; time (hr): 24

Compound | MUC1 transcript change (Z-score)
O=c1n(Cl)c(=O)n(Cl)c(=O)n1Cl [symclosene] | -0.113
C[C@@H]([C@H](O)c1ccccc1)N(C)C [(-)-Ephedrine, N-Methyl] | -0.647
O=C(O)Cc1ccccc1 [sodium phenylacetate] | 0.584
Oc1cccc2cccnc12 [oxyquinoline] | 0.792
CC(C)(O)C(Cl)(Cl)Cl [chlorobutanol] | 1.46
COc1ccc(C(CN(C)C)C2(O)CCCCC2)cc1 (stereo not drawn) [venlafaxine hydrochloride] | 0.758
Cc1ncc(CNC(=O)N(CCCl)N=O)c(N)n1 [nimustine] | 0.212
O=P1(NCCCl)OCCCN1CCCl (stereo not drawn) [ifosfamide] | 0.611
O=C(O)c1nn(Cc2ccc(Cl)cc2Cl)c2ccccc12 [lonidamine] | 0.0163
O=C1C[C@@H]2OCC=C3CN4CC[C@]56c7ccccc7N1[C@H]5[C@H]2[C@H]3C[C@H]46 [strychnine] | 0.0505
CNc1ccc(C(=O)CC(O)CCC(C)C2OC(=O)CC(O)CC(=O)CC(O)CC(O)CC(O)CC(O)CC3(O)CC(O)C(C(=O)OC)C(CC(O[C@@H]4O[C@H](C)[C@@H](O)[C@H](N)[C@@H]4O)/C=C/C=C/C=C/C=C/C=C/C=C/C=C/C2C)O3)cc1 (stereo partly drawn) [mepartricin] | -0.51
NCCc1cc(O)c(O)cc1O [oxidopamine hydrochloride] | -0.958
C[N+](C)(C)CCCCCCCCCC[N+](C)(C)C [Decamethonium dibromide] | 1.09
CC(=O)OC1CN2CCC1CC2 (stereo not drawn) [aceclidine hydrochloride] | 0.714
C[C@]12CCC(=O)C=C1CCC1C2CC[C@@]2(C)C1CC[C@@H]2O (stereo partly drawn) [testosterone] | -0.0531
C=C[C@H]1CN2CC[C@H]1C[C@H]2[C@H](O)c1ccnc2ccccc12 [cinchonidine] | 0.221
Oc1cc(Cl)ccc1Oc1ccc(Cl)cc1Cl [triclosan] | 0.154
NC(=O)c1cc([N+](=O)[O-])cc([N+](=O)[O-])c1 [nitromide] | 0.647
Nc1ccncc1 [4-Aminopyridine] | -0.218
O=[N+]([O-])O[C@H]1CO[C@H]2[C@@H]1OC[C@H]2O[N+](=O)[O-] [isosorbide dinitrate] | 0.573
CCOC(=O)c1cncn1[C@H](C)c1ccccc1 [etomidate] | -0.132

Compound | MUC1 transcript change (Z-score)
CC(=O)Nc1cc([As](=O)(O)O)ccc1O [acetarsol] | 0.756
O=C1C=C2C=C[C@@H]3C[C@@]2(O1)[C@H]1CCCCN31 [securinine] | -2.41
O=C(CCCN1CCC2(CC1)C(=O)NCN2c1ccccc1)c1ccc(F)cc1 [Spiperone hydrochloride] | 1.3
C[N+]12CCC(CC1)C(OC(=O)C(O)(c1ccccc1)c1ccccc1)C2 (stereo not drawn) [clidinium bromide] | 0.263
CN1C2C[C@H](OC(=O)[C@H](CO)c3ccccc3)C[C@H]1[C@H]1OC21 (stereo partly drawn) [scopolamine hydrobromide] | 0.822
CC(=O)O[C@H]1CC[C@@]2(C)C(=CCC3C2CC[C@]2(C)C(=O)CCC32)C1 (stereo partly drawn) [praesterone acetate] | 0.378
C[C@@H]1C[C@@H]([C@H](O)CC2CC(=O)NC(=O)C2)C(=O)[C@@H](C)C1 [cycloheximide] | 1.72
CC(=O)[C@H]1CCC2[C@@H]3CCC4C[C@H](O)CC[C@]4(C)C3CC[C@@]21C (stereo partly drawn) [eltanolone] | -0.796
CN1C[C@H](C(=O)N[C@]2(C)O[C@@]3(O)[C@@H]4CCCN4C(=O)[C@H](Cc4ccccc4)N3C2=O)C[C@@H]2c3cccc4[nH]cc(c34)C[C@H]21 [Dihydroergotamine methanesulfonate] | 0.763
CC(=O)OCC1=C(C(=O)O)N2C(=O)[C@@H](NC(=O)CCCC(N)C(=O)O)C2SC1 (stereo partly drawn) [cephalosporin c sodium] | -0.439
COc1ccc2c(c1)[C@]13CCCC[C@@H]1[C@H](C2)N(C)CC3 [dextromethorphan hydrobromide] | 0.534
N[C@@H](Cc1ccc(N(CCCl)CCCl)cc1)C(=O)O [melphalan] | -0.672
C=CC[C@]1(O)CC[C@H]2[C@@H]3CCC4=CC(=O)CCC4=C3C=C[C@@]21C [altrenogest] | 0.538
C1CCc2nnnn2CC1 [pentetrazole] | -0.241
C=CCN=C=S [allylisothiocyanate] | -0.0259
C[C@H](N)[C@H](O)c1ccc(O)c(O)c1 [levonordefrin] | 0.283
CC(CCc1ccccc1)NC(C)C(O)c1ccc(O)cc1 (stereo not drawn) [Nylidrin hydrochloride] | -0.0328
Nc1nc(N)nc(NC2CC2)n1 [cyromazine] | 0.407
C[N+]1(C)CCCC(OC(=O)C(O)(c2ccccc2)c2ccccc2)C1 (stereo not drawn) [mepenzolate bromide] | 0.314
CC(O)(CS(=O)(=O)c1ccc(F)cc1)C(=O)Nc1ccc(C#N)c(C(F)(F)F)c1 (stereo not drawn) [bicalutamide] | -0.087
O=C(O)CCCc1ccc(N(CCCl)CCCl)cc1 [chlorambucil] | 0.53

Compound | MUC1 transcript change (Z-score)
c1ccc2c(c1)sc1ccccc12 [dibenzothiophene] | -1.11
Cc1cc(O)ccc1Cl [chlorocresol] | -4.11
C#CCN(C)C(C)Cc1ccccc1 (stereo not drawn) [selegiline hydrochloride] | 0.734
Cc1cc(C(C#N)c2ccc(Cl)cc2)c(Cl)cc1NC(=O)c1cc(I)cc(I)c1O (stereo not drawn) [closantel] | 0.637
O=C1[O][Pt]2([NH][C@@H]3CCCC[C@H]3[NH]2)[O]C1=O [oxaliplatin] | 1.03
COc1ccc(CN2CCNCC2)c(OC)c1OC [trimetazidine dihydrochloride] | -0.603
Cc1ccc(/N=C/N(C)/C=N/c2ccc(C)cc2C)c(C)c1 [amitraz] | 0.895
CC[C@H]1C2CC3[C@@H]4N(C)c5ccccc5[C@]45C[C@@H](C2C5O)N3[C@@H]1O (stereo partly drawn) [ajmaline] | 1.07
CC(Cc1ccc(O)cc1)NCC(O)c1cc(O)cc(O)c1 (stereo not drawn) [fenoterol hydrobromide] | 0.127
OC[C@@H](O)[C@H]1O[C@@H]2O[C@H](C(Cl)(Cl)Cl)O[C@@H]2[C@H]1O [chloralose] | -0.153
COc1ccc(O)c(C(C)(C)C)c1 [butylated hydroxyanisole] | 0.227
CC(C)N(CCC(C(N)=O)(c1ccccc1)c1ccccn1)C(C)C (stereo not drawn) [Disopyramide phosphate] | 0.361
COc1ccc(C(=O)N2CCCC2=O)cc1 [Aniracetam] | 1.12
CC(C)C[C@H](CN)CC(=O)O [pregabalin] | 0.409
CN(C)C(=S)SSC(=S)N(C)C [thiram] | 1.16
CC(C)(C)NCC(O)c1ccccc1Cl (stereo not drawn) [tulobuterol] | -0.166
CCC(C)(C)O [amylene hydrate] | 0.704
CNC(C)C(O)c1ccccc1 (stereo not drawn) [racephedrine hydrochloride] | 0.221
COc1cccc([C@]2(O)CCCC[C@H]2CN(C)C)c1 [tramadol hydrochloride] | 0.377
[N-]=[N+]=CC(=O)OCC(N)C(=O)O (stereo not drawn) [azaserine] | 0.416
CCn1cc(C(=O)O)c(=O)c2cc3c(cc21)OCO3 [oxolinic acid] | -1.25

25 entries from above, as tab-separated lines:
Compound	MUC1 transcript change (Z-score)
C[C@H](N)[C@H](O)c1ccc(O)c(O)c1 [levonordefrin]	0.283
CC(CCc1ccccc1)NC(C)C(O)c1ccc(O)cc1 (stereo not drawn) [Nylidrin hydrochloride]	-0.0328
Nc1nc(N)nc(NC2CC2)n1 [cyromazine]	0.407
C[N+]1(C)CCCC(OC(=O)C(O)(c2ccccc2)c2ccccc2)C1 (stereo not drawn) [mepenzolate bromide]	0.314
CC(O)(CS(=O)(=O)c1ccc(F)cc1)C(=O)Nc1ccc(C#N)c(C(F)(F)F)c1 (stereo not drawn) [bicalutamide]	-0.087
O=C(O)CCCc1ccc(N(CCCl)CCCl)cc1 [chlorambucil]	0.53
c1ccc2c(c1)sc1ccccc12 [dibenzothiophene]	-1.11
Cc1cc(O)ccc1Cl [chlorocresol]	-4.11
C#CCN(C)C(C)Cc1ccccc1 (stereo not drawn) [selegiline hydrochloride]	0.734
Cc1cc(C(C#N)c2ccc(Cl)cc2)c(Cl)cc1NC(=O)c1cc(I)cc(I)c1O (stereo not drawn) [closantel]	0.637
O=C1[O][Pt]2([NH][C@@H]3CCCC[C@H]3[NH]2)[O]C1=O [oxaliplatin]	1.03
COc1ccc(CN2CCNCC2)c(OC)c1OC [trimetazidine dihydrochloride]	-0.603
Cc1ccc(/N=C/N(C)/C=N/c2ccc(C)cc2C)c(C)c1 [amitraz]	0.895
CC[C@H]1C2CC3[C@@H]4N(C)c5ccccc5[C@]45C[C@@H](C2C5O)N3[C@@H]1O (stereo partly drawn) [ajmaline]	1.07
CC(Cc1ccc(O)cc1)NCC(O)c1cc(O)cc(O)c1 (stereo not drawn) [fenoterol hydrobromide]	0.127
OC[C@@H](O)[C@H]1O[C@@H]2O[C@H](C(Cl)(Cl)Cl)O[C@@H]2[C@H]1O [chloralose]	-0.153
COc1ccc(O)c(C(C)(C)C)c1 [butylated hydroxyanisole]	0.227
CC(C)N(CCC(C(N)=O)(c1ccccc1)c1ccccn1)C(C)C (stereo not drawn) [Disopyramide phosphate]	0.361
COc1ccc(C(=O)N2CCCC2=O)cc1 [Aniracetam]	1.12
CC(C)C[C@H](CN)CC(=O)O [pregabalin]	0.409
CN(C)C(=S)SSC(=S)N(C)C [thiram]	1.16
CC(C)(C)NCC(O)c1ccccc1Cl (stereo not drawn) [tulobuterol]	-0.166
CCC(C)(C)O [amylene hydrate]	0.704
CNC(C)C(O)c1ccccc1 (stereo not drawn) [racephedrine hydrochloride]	0.221
COc1cccc([C@]2(O)CCCC[C@H]2CN(C)C)c1 [tramadol hydrochloride]	0.377

Fetched by compound from above:
Compound | MUC1 transcript change (Z-score)
c1ccc2c(c1)sc1ccccc12 [dibenzothiophene] | -1.11
Cc1ccc(/N=C/N(C)/C=N/c2ccc(C)cc2C)c(C)c1 [amitraz] | 0.895

(listing goes on)

Compound | MUC1 transcript change (Z-score)
CN1C[C@H](C(=O)N[C@]2(C)O[C@@]3(O)C4CCCN4C(=O)[C@H](Cc4ccccc4)N3C2=O)C=C2c3cccc4[nH]cc(c34)C[C@H]21 (stereo partly drawn) [ergotamine tartrate] | 0.864
CNC(C)[C@H](O)c1ccccc1 (stereo partly drawn) [ephedrine (1r,2s) hydrochloride] | 0.708
Nc1ccc([As](=O)(O)O)cc1 [arsanilic acid] | 0.348
Clc1ccc(C(OCCN2CCCCC2)c2ccccc2)cc1 (stereo not drawn) [cloperastine hydrochloride] | -0.254
C[C@@H](CO)NC(=O)[C@@H]1C=C2c3cccc4[nH]cc(c34)C[C@H]2N(C)C1 [ergonovine maleate] | -0.921
O=[N+]([O-])C(Br)(CO)CO [bronopol] | -1.41
O=C(OC1CC2CCC(C1)[N+]21CCCC1)C(O)(c1ccccc1)c1ccccc1 (stereo not drawn) [trospium chloride] | -0.693
C[N+]1([O-])C2CCC1CC(OC(=O)C(CO)c1ccccc1)C2 (stereo not drawn) [atropine oxide] | -0.222
CCC(=O)O[C@H]1CCC2C3CCC4=CC(=O)CC[C@]4(C)C3CC[C@@]21C (stereo partly drawn) [testosterone propionate] | 0.931
C=CCC1(C(C)CCC)C(=O)N=C(S)NC1=O (stereo not drawn) [thiamylal sodium] | -1.07
Oc1ccc(Cl)cc1 [parachlorophenol] | 0.543
NP(N)(=O)NC(=O)c1ccc(F)cc1 [flurofamide] | -4.32
NC(=O)CN1CCCC1=O [piracetam] | 0.854
Oc1ccc(Cl)cc1Cc1cc(Cl)ccc1O [dichlorophene] | -1.03
CC(CC(C(N)=O)(c1ccccc1)c1ccccc1)N(C)C (stereo not drawn) [aminopentamide sulfate] | 1.4
CC[C@@H](C(=O)[C@@H](C)[C@@H](O)[C@H](C)[C@@H]1O[C@@H]([C@@H](CC)C(=O)O)CC[C@@H]1C)[C@H]1OC2(C=C[C@@H](O)[C@]3(CC[C@@](C)([C@H]4CC[C@](O)(CC)[C@H](C)O4)O3)O2)[C@H](C)C[C@@H]1C (stereo partly drawn) [salinomycin, sodium] | 2.78
CCOP(=S)(OCC)Oc1cc(C)nc(C(C)C)n1 [diazinon] | 0.303
CCC(COC(=O)c1cc(OC)c(OC)c(OC)c1)(c1ccccc1)N(C)C (stereo not drawn) [trimebutine maleate] | -0.269
COc1cc2c(c(OC)c1OC)-c1ccc(OC)c(=O)cc1[C@@H](NC(C)=O)CC2 [colchicine] | -1.15
C[C@]12CC[C@@H]3c4ccc(OC(=O)N(CCCl)CCCl)cc4CC[C@H]3[C@@H]1CC[C@@H]2O [estramustine] | 0.91

Reference: the supplement of paper PMC4749390
